From article PMC10298087
No constants are given. Whether binding was seen depends on the method and setting. In cells and extracts the contact can be indirect. A yes stands for co-enrichment or nearness to the bait. Other partners may have been found.

T1: TRIM28-K304Q (endogenous, knock-in K562 clone Q1) (human (endogenous in K562)) (UniProt Q13263)
T1 sequence: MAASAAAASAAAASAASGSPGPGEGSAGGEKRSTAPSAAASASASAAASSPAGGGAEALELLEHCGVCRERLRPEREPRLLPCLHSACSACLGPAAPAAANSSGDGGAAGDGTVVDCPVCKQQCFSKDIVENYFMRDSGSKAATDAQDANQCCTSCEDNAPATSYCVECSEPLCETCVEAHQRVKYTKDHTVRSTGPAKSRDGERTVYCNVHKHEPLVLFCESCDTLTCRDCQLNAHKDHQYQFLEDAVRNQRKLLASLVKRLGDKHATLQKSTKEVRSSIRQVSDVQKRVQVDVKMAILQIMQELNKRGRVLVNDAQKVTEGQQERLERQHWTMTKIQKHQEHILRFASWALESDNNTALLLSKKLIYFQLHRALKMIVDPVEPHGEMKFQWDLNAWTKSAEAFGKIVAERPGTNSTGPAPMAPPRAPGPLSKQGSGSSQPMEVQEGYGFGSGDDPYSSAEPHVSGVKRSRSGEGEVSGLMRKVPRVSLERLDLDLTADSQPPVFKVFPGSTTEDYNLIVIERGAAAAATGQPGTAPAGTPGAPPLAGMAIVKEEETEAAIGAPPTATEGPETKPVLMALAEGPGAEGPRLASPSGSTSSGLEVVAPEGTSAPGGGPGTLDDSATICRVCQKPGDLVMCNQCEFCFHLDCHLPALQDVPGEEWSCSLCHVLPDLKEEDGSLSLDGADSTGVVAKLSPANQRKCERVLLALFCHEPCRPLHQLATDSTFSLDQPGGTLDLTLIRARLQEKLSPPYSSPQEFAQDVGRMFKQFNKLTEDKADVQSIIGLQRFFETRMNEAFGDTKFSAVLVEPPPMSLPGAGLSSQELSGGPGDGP

B1: ZFP92 (protein, UniProt A6NM28 1-416)
chain: MAAILLTTRPKVPVSFEDVSVYFTKTEWKLLDLRQKVLYKRVMLENYSHLVSLGFSFSKPHLISQLERGEGPWVADIPRTWATAGLHIGDRTQSKTSTSTQKHSGRQLPGADPQGGKEGQAARSSVLQRGAQGLGQSSAAGPQGPKGAEKRYLCQQCGKAFSRSSNLIKHRIIHSGEKPYACPECGKLFRRSFALLEHQRIHSGEKPYACPECSKTFTRSSNLIKHQVIHSGERPFACGDCGKLFRRSFALLEHARVHSGERPYACPECGKAFSRSSNLIEHQRTHRGEKPYACGQCAKAFKGVSQLIHHQRSHSGERPFACRECGKAFRGRSGLSQHRRVHSGEKPYECSDCGKAFGRRANLFKHQAVHGARRPAKAETARRLAGPGSTGPGSAVAATSPPRPSTAARPSRPSRR
B2: HNRNP M (protein, UniProt P52272 1-730)
chain: MAAGVEAAAEVAATEIKMEEESGAPGVPSGNGAPGPKGEGERPAQNEKRKEKNIKRGGNRFEPYANPTKRYRAFITNIPFDVKWQSLKDLVKEKVGEVTYVELLMDAEGKSRGCAVVEFKMEESMKKAAEVLNKHSLSGRPLKVKEDPDGEHARRAMQKVMATTGGMGMGPGGPGMITIPPSILNNPNIPNEIIHALQAGRLGSTVFVANLDYKVGWKKLKEVFSMAGVVVRADILEDKDGKSRGIGTVTFEQSIEAVQAISMFNGQLLFDRPMHVKMDERALPKGDFFPPERPQQLPHGLGGIGMGLGPGGQPIDANHLNKGIGMGNIGPAGMGMEGIGFGINKMGGMEGPFGGGMENMGRFGSGMNMGRINEILSNALKRGEIIAKQGGGGGGGSVPGIERMGPGIDRLGGAGMERMGAGLGHGMDRVGSEIERMGLVMDRMGSVERMGSGIERMGPLGLDHMASSIERMGQTMERIGSGVERMGAGMGFGLERMAAPIDRVGQTIERMGSGVERMGPAIERMGLSMERMVPAGMGAGLERMGPVMDRMATGLERMGANNLERMGLERMGANSLERMGLERMGANSLERMGPAMGPALGAGIERMGLAMGGGGGASFDRAIEMERGNFGGSFAGSFGGAGGHAPGVARKACQIFVRNLPFDFTWKMLKDKFNECGHVLYADIKMENGKSKGCGVVKFESPEVAERACRMMNGMKLSGREIDVRIDRNA
B3: REXO5 (protein, UniProt Q96IC2 1-774)
chain: MEPEREGTERHPRKVRESRQAPNKLVGAAEAMKAGWDLEESQPEAKKARLSTILFTDNCEVTHDQLCELLKYAVLGKSNVPKPSWCQLFHQNHLNNVVVFVLQGMSQLHFYRFYLEFGCLRKAFRHKFRLPPPSSDFLADVVGLQTEQRAGDLPKTMEGPLPSNAKAAINLQDDPIIQKYGSKKVGLTRCLLTKEEMRTFHFPLQGFPDCENFLLTKCNGSIADNSPLFGLDCEMCLTSKGRELTRISLVAEGGCCVMDELVKPENKILDYLTSFSGITKKILNPVTTKLKDVQRQLKALLPPDAVLVGHSLDLDLRALKMIHPYVIDTSLLYVREQGRRFKLKFLAKVILGKDIQCPDRLGHDATEDARTILELARYFLKHGPKKIAELNLEALANHQEIQAAGQEPKNTAEVLQHPNTSVLECLDSVGQKLLFLTRETDAGELPSSRNCQTIKCLSNKEVLEQARVEIPLFPFSIVQFSFKAFSPVLTEEMNKRMRIKWTEISTVYAGPFSKNCNLRALKRLFKSFGPVQSMTFVLETRQPHLCIQYEVLEAAQLAIESLDGILVDGICIKVQRPVTELTLDCDTLVNELEGDSENQGSIYLSGVSETFKEQLLQEPRLFLGLEAVILPKDLKSGKQKKYCFLKFKSFGSAQQALNILTGKDWKLKGRHALTPRHLHAWLRGLPPESTRLPGLRVVPPPFEQEALQTLKLDHPKIAAWRWSRKIGKLYNSLCPGTLCLILLPGTKSTHGSLSGLGLMGIKEEEESAGPGLCS

How the values were obtained:
[1] = target: T1, TRIM28-K304Q (endogenous, knock-in K562 clone Q1) (human (endogenous in K562)); assay: affinity purification with mass spectrometry; IP of endogenous TRIM28 or TRIM28-K304Q from K562 cells with anti-TRIM28-N-conjugated protein A beads; washed, eluted with the antibody-generating peptide; MS (LTQ-Orbitrap Velos, Mascot)
[2] = target: wild-type TRIM28 (endogenous, K562 cells) (human (endogenous in K562)) (UniProt Q13263); assay: as above

Binder | binding [1] | binding [2]
B1 | binds | binds
B2 | binds | binds
B3 | binds | binds
